Measurements reported in US20240425601A1 (University of California, published 2024).
Substitutions are numbered along the chain they refer to. Results are given in words; binding and its absence hold for the method and conditions named. Some results given as binding are weak or reduced against the parent protein; the word gives no strength. Blank lines part the entries; values can stand above or below the binder they belong to.

Protein sequences, listed by entry. Tags and fused reporters are not part of them. Lines headed by an entry give the natural chain unless they say otherwise; changes in a name come on top.
UniProt P43406: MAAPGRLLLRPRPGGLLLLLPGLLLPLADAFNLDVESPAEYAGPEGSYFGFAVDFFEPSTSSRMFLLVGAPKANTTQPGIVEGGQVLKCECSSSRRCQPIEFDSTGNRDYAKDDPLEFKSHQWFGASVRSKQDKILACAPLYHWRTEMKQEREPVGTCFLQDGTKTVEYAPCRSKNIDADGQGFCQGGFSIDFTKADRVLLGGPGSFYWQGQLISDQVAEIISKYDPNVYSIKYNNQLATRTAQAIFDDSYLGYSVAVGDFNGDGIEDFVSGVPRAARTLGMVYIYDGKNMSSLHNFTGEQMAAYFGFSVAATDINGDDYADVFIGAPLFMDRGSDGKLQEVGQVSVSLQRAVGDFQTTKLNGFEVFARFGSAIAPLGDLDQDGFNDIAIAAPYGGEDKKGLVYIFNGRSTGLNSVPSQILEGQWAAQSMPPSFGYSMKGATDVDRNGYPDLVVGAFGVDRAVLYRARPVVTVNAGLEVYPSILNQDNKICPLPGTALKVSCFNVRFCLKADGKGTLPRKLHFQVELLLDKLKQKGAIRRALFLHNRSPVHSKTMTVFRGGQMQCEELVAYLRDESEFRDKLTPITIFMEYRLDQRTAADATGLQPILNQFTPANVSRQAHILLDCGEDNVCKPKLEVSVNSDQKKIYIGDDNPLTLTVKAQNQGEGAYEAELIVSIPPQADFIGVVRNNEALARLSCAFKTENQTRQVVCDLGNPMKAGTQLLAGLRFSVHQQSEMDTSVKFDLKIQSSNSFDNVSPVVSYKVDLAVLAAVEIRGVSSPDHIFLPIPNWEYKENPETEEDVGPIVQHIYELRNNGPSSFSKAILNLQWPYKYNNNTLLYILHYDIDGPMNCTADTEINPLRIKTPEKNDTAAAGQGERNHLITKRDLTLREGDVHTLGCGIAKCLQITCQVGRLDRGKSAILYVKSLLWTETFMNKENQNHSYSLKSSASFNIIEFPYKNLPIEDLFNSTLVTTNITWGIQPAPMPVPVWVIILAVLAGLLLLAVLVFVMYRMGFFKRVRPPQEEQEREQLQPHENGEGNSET
UniProt Q0VBD0: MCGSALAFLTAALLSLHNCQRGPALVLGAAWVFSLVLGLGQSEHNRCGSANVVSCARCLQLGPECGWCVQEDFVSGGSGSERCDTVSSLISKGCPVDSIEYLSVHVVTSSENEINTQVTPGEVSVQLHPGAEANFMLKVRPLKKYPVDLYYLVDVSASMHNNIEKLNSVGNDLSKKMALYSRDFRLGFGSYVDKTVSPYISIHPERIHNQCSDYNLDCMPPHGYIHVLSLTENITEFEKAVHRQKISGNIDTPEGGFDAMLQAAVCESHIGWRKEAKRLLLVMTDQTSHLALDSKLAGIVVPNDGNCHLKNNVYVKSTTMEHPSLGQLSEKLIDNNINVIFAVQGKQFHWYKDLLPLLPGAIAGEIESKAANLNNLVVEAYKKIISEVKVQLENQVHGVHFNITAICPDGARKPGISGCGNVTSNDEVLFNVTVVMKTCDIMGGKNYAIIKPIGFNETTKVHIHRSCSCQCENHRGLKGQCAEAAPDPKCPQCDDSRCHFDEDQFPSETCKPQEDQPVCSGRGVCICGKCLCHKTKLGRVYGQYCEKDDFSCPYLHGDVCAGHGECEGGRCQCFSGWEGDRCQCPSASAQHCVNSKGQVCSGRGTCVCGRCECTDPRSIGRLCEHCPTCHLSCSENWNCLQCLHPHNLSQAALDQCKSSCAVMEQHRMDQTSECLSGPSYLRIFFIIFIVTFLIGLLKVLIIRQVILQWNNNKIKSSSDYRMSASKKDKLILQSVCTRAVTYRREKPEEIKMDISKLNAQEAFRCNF

What was measured:
[1] = target: T1, recombinant mouse αvβ8 (mouse) (UniProt P43406+Q0VBD0); experiment: bio-layer interferometry, IgG loaded on anti-human Fab-CH1 tips, αvβ8 at 200 nM in solution
[2] = target: T2, surface-expressed mouse αvβ8 (mouse) (UniProt P43406+Q0VBD0); experiment: FACS titration on murine astrocytes, fluorescently-labeled secondary antibody
[3] = target: T1, recombinant mouse αvβ8 (mouse); experiment: bio-layer interferometry
[4] = target: T2, surface-expressed mouse αvβ8 (mouse); experiment: FACS on murine astrocytes
[5] = target: T1, recombinant mouse αvβ8 (mouse); experiment: bio-layer interferometry (legend of FIGS. 5A and 5B)
[6] = target: T2, surface-expressed mouse αvβ8 (mouse); experiment: FACS on murine astrocytes (legend of FIG. 7)
[7] = target: T1, recombinant mouse αvβ8 (mouse); experiment: bio-layer interferometry, IgG loaded on anti-human Fab-CH1 tips, mouse αvβ8 at 200 nM in solution

B4: ADWA16-3.2 (antibody, V domains shown)
VH: EVQLVESGGGLVQPGGSLRLSCAVSGYIFSSYWVYWVRQAPGKGLEWVGYISPTTGYTVYADSVKGRFTISRDNSKNTLYLQMNSLRAEDTAVYYCATEGGNWEDYWGQGTLVTVSS
VL: DIQMTQSPSSLSASVGDRVTITCRASQDISNYINWYQQKPGKAPKLLIYYTSRLYGGVPSRFSGSGSGTDFTLTISSLQPEDFATYYCQQFSELPRTFGQGTKVEIK
- binding [4]: binds
- binding [3]: binds
- binding [5]: binds
- binding [2]: binds
- binding [6]: binds
- binding [7]: binds

B5: ADWA16-3 (antibody, V domains shown)
VH: B4 VH with S52N, V59E
VL: B4 VL
- binding [3]: binds
- binding [5]: binds
- binding [1]: binds
- binding [7]: binds

B6: ADWA16-2 (antibody, V domains shown)
VH: B4 VH with S52N, V59E
VL: B4 VL with Q27K, I33L, G56S
- binding [3]: binds
- binding [1]: binds

B7: ADWA16-4 (antibody, V domains shown)
VH: B4 VH with S52N, V59E
VL: B4 VL with Q27K
- binding [3]: binds
- binding [1]: binds

B8: ADWA11 (antibody, V domains shown)
VH: EVQLQQSGAELVRPGAFVKLSCKASGFNIKDYYMNWVLQRPEQGLEWIGWIDPDNGNTIYDPKFQGKASITADTSSNTAYLQLSSLTSEDTAVYYCARRLLMDYWGQGTSVTVSS
VL: DIVMTQAAPSVPVTPGESVSISCRSTKSLLHFNGNTYLFWFLQRPGQSPQRLIYYMSNLASGVPDRFSGRGSGTDFTLRISRVEAEDVGVYYCMQSLEYPFTFGTGTKLEIK
- binding [2]: binds

Other lines, results leading:

- binding [1]: binds
B1: ADWA16-chimera (antibody, V domains shown)
VH: QVQLQQSGAELAKPGASMKMSCKASGYTFSSYWIYWVKQRPGQGLEWIGYINPTTGYTEYNQKFRDKATLTADKSSNTAYMQLSSLTSEDSAVYYCATEGGNWEDYWGQGTTLTVSS
VL: DIQMTQTTSSLSASLGDRVTISCRASQDISNYLNWYQQKPDGTVKLLIYYTSRLYSGVPSRFSGSGSGTDYSLTISNLEPKDIATYYCQQFSELPRTFGGGTKLEIK

- binding [2]: binds
B2: ADWA16 (antibody, V domains shown)
VH: B1 VH
VL: B1 VL

- binding [3]: binds
- binding [1]: binds
B3: ADWA16-1 (antibody, V domains shown)
VH: B4 VH with S52N, V59E
VL: B4 VL with G56S
